The list shows only some results of the screen, not a fair sample: its compounds were picked by chemical class. Not every dose and run of a compound is shown. T/C gives the treated animals as a percentage of the vehicle group. Where survival is the endpoint, this PubChem deposit counts one and a half times the control or more as active, and values a quarter to a half above the control carry no call in these data; other NCI protocols may use other cut-offs. Some T/C values are marked as having no survivor count here; that says nothing about deaths at the dose. Schedules are NCI's codes, read here as Q, the interval in days (D) or hours (H), X, the number of doses. Some doses were run more than once; their values stand side by side, smallest first. Some schedule codes hold Z or #, which are not explained here.
System: BDF1 mice, P1081 chloroleukemia ip, survival T/C
Assay: NCI In Vivo Anticancer Drug Screen. Data for tumor model P1081 Chloroleukemia (intraperitoneal) in B6D2F1 (BDF1) mice
Conditions: T/C endpoint: mean survival time, vehicle: saline, higher T/C = longer survival
Description: The antitumor activity of compounds was measured in mice bearing transplantable tumors. Survival or tumor size were measured and the results are expressed as the measurement made in the treated group (T) divided by the measurement made in the vehicle treated control group (C). The tumor model used in this assay is P1081 Chloroleukemia (intraperitoneal) in B6D2F1 (BDF1) mice

CN(CCCl)CCCl
T/C (dose: 0.13 mg/kg/injection, schedule: Q01DX010 (ip)): 100 [survivor count not shown] and 145 % of control [survivor count not shown]
T/C (dose: 0.25 mg/kg/injection, schedule: Q01DX010 (ip)): 95 [survivor count not shown] and 115 % of control [survivor count not shown]
T/C (dose: 0.5 mg/kg/injection, schedule: Q01DX010 (ip)): 90 % of control [survivor count not shown]
T/C (dose: 15.7 micrograms/kg/injection, schedule: Q01DX Z (ip)): 148 % of control [survivor count not shown]
T/C (dose: 31.2 micrograms/kg/injection, schedule: Q01DX Z (ip)): 98 % of control [survivor count not shown]
T/C (dose: 31.5 micrograms/kg/injection, schedule: Q01DX Z (ip)): 151 % of control [survivor count not shown]
T/C (dose: 63.0 micrograms/kg/injection, schedule: Q01DX Z (ip)): 158 % of control [survivor count not shown]
